Reference: the supplement of paper PMC12889115
The list shows a part of the results. Values are raw readings; no control value is given beside them.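 In the initial screen, polymyxin B was used at a concentration that permeabilizes Salmonella's outer membrane but not its inner membrane. Maximum growth was set by DMSO wells with or without polymyxin B. Since plates varied, data were ranked per plate, and compounds giving the lowest OD600 advanced as hits.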

Tested on: Salmonella enterica serovar Typhimurium SL1344
Experiment: bacterial growth OD600 after 18 h with compound and polymyxin B; higher = more bacterial growth (less inhibition)
Conditions: 50 µM, Mueller-Hinton broth

Row | SMILES | bacterial growth OD600 (polymyxin B 0.75 µg/mL) | bacterial growth OD600 (polymyxin B 1 µg/mL)
1 | CCC(=O)N[C@@H]1c2ccccc2C2(CCN(C(=O)c3cc(CC)on3)CC2)[C@H]1OCc1cccnc1 | 0.879 | –
2 | CCN1CCN(C2(C(=O)N(C)Cc3nccs3)Cc3ccccc3C2)CC1 | 0.941 | –
3 | COc1ccc(NC(=O)CCC2CCCN(Cc3cccc(C)n3)C2)c(C)c1 (stereo not given) | – | 0.937
4 | Cc1nn(C)cc1CN(C)Cc1c(C(=O)N(C)Cc2ccccc2)nc2ccccn12 | 0.855 | –
5 | Cc1c(C(=O)NC(C)(C)CO)sc2ncnc(NCCc3ccccc3)c12 | 0.863 | –
6 | CCOC(=O)C1(CCCc2ccccc2)CCN(C(=O)C2CC23CCC3)CC1 (stereo not given) | – | 0
7 | COc1ccccc1CN1C(=O)O[C@@H]2CN(C)C[C@@H]21 | – | 1.12
8 | O=C1CCC(C(=O)N2CCCCCCC2)CN1CCCc1ccccc1 (stereo not given) | – | 0.899
9 | C=CCCC(=O)NC1CCCN(CCc2ccccc2)C1 (stereo not given) | 0.809 | –
10 | CCN(CCO)Cc1cn(-c2ccccc2C)nc1-c1ccc(OC)c(F)c1 | – | 0.951
11 | O=C(NCc1ccccc1)c1cccc(OC2CCN(Cc3ccc(CO)o3)CC2)c1 | – | 0.889
12 | CCN1CCC(NC(C)c2cnc(N3CCCCCCC3)nc2C)CC1 (stereo not given) | 0.773 | –
13 | COc1cc(NC(=O)CCC2CCCN(C(=O)c3ccnn3C)C2)cc(OC)c1 (stereo not given) | – | 1.04
14 | COc1ccccc1C(=O)C1CCCN(C(=O)CN2C(=O)c3ccccc3C2=O)C1 (stereo not given) | – | 0.171
15 | COc1cccc(N2C(=O)CN(Cc3cnn(C)c3)CC2C)c1 (stereo not given) | 0.834 | –
16 | Cc1cc(C)n(CCN(C)C(=O)CC2(c3ccccc3Cl)CC(=O)N(C3CCCC3)C2=O)n1 (stereo not given) | 0.074 | –
17 | Cc1c(C(=O)N(C)C(C)C)sc2ncnc(N3CCCCCCC3)c12 | 0.007 | –
18 | Cc1ncoc1C(=O)N1CCCC(N2CCN(Cc3ccc4c(c3)OCO4)CC2)C1 (stereo not given) | – | 0.921
19 | Cc1nc(N2CCC(C(=O)NC3C4CC5CC3CC(O)(C5)C4)CC2)nc2ccccc12 (stereo not given) | 0.794 | –
20 | COC(=O)c1ccccc1C(=O)N(C)CC1CCCN(CCc2ccc(Cl)cc2)C1 (stereo not given) | – | 0.87
21 | Cc1nonc1CC(=O)NC1CC(=O)N(Cc2ccccc2C(F)(F)F)C1 (stereo not given) | – | 1.01
22 | Cc1ccc(-c2n[nH]cc2CN2CCN(c3ccc(Cl)cn3)CC2)cc1C | – | -0.001
23 | CCCOC1CCCN(Cc2cnc(S(=O)(=O)C(C)C)n2CCC(C)C)C1 (stereo not given) | – | 0.554
24 | COCCN(Cc1ccccn1)C(Cc1ccccc1)C1CCN(Cc2cc3ccccc3[nH]2)CC1 (stereo not given) | 0.548 | –
25 | COc1cccc(OCc2cc(C(=O)NC3CCOC(C)(C)C3)n[nH]2)c1 (stereo not given) | – | 0.89
26 | CCOC(=O)N1CCN(C(=O)C2CC23CCN(C(=O)c2cc(C4CC4)nc4ccccc24)CC3)CC1 (stereo not given) | 0.815 | –
27 | CC#CCN1C(=O)NC(CCCc2ccccc2)(C2CCN(Cc3cccc(OC)c3)CC2)C1=O (stereo not given) | 0.593 | –
28 | CCn1nc(C(C)C)cc1C(=O)N1CCCC(CO)(Cc2ccc(F)cc2F)C1 (stereo not given) | – | 0.684
29 | O=C(NC1CC(=O)N(CCc2cccc(Cl)c2)C1)c1ccsc1 (stereo not given) | – | 0.87
30 | COc1ccc(CCNC(=O)CCC2(Cc3ccc(OC)cc3F)CCC(=O)N2)cc1 (stereo not given) | 0.946 | –

Taken from above.
Value of CCOC(=O)N1CCN(C(=O)C2CC23CCN(C(=O)c2cc(C4CC4)nc4ccccc24)CC3)CC1 (stereo not given) under bacterial growth OD600 (polymyxin B 0.75 µg/mL): 0.815
Value of COc1cccc(OCc2cc(C(=O)NC3CCOC(C)(C)C3)n[nH]2)c1 (stereo not given) under bacterial growth OD600 (polymyxin B 1 µg/mL): 0.89
